Measured values published in PubChem BioAssay.
Some of the results follow. Measured potencies and affinities stand elsewhere. The source made no clear call on entries shown without one.

Assay: Drosophila SCA1 whole organism dose response for polyglutamine toxicity reduction (AID 1595)
Conditions: Drosophila SCA1 polyglutamine model, at 1 µM, stronger effect = higher value

| SMILES | suppression of toxicity |
| --- | --- |
| CCN(CC)CCOC(=O)C(c1ccccc1)c1ccccc1 | 8.57 |
| NC[C@@H]1O[C@H](O[C@@H]2[C@@H](CO)OC(O[C@@H]3[C@@H](O)[C@H](N)C[C@H](N)[C@H]3OC3O[C@H](CN)[C@@H](O)[C@H](O)[C@H]3N)[C@@H]2O)[C@H](N)[C@@H](O)[C@@H]1O (stereo not given in full) | 4.29 |
| CCn1nc(C(=O)O)c(=O)c2cc3c(cc21)OCO3 | 0 |
| CCCCC1C(=O)N(c2ccccc2)N(c2ccccc2)C1=O | 5.71 |
| O=C(O)c1c2ccccc2cc2ccccc12 | 0 |
| NC[C@@H]1O[C@H](O[C@H]2[C@@H](O)[C@H](O[C@@H]3[C@@H](O)[C@H](N)C[C@H](N)[C@H]3O[C@@H]3O[C@H](CO)[C@@H](O)C[C@H]3N)O[C@@H]2CO)[C@H](N)[C@@H](O)[C@@H]1O[C@H]1O[C@H](CO)[C@@H](O)[C@H](O)[C@@H]1O | 0 |
| O=C1OCCN1/N=C/c1ccc([N+](=O)[O-])o1 | 0 |
| Cc1cn([C@H]2C[C@H](N=[N+]=[N-])[C@@H](CO)O2)c(=O)[nH]c1=O | 2.86 |
| NS(=O)(=O)c1cc2c(cc1C(F)(F)F)NC(Cc1ccccc1)NS2(=O)=O (stereo not given) | 7.14 |
| CC(C)(Oc1ccc(Cl)cc1)C(=O)O | 2.85 |
| CN(C)CCOC(c1ccccc1)c1ccccc1 (tested in a mixture with another compound) | 12.9 |
| O=S(=O)(O)CCS | 0 |
| O=c1c(O)cc2c(O)oc3c(=O)c(O)cc4c3c2c1CC=4O | 5.71 |
| CC(C)[C@@H](C)/C=C/[C@@H](C)C1CC[C@H]2/C(=C/C=C3\C[C@@H](O)CC[C@@H]3C)CCC[C@]12C (stereo not given in full) | 0 |
| NC(CO)C(=O)NNCc1ccc(O)c(O)c1O (stereo not given) | 2.85 |
| CCCCOc1cc(C(=O)NCCN(CC)CC)c2ccccc2n1 | 2.85 |
| CCN(Cc1ccncc1)C(=O)C(CO)c1ccccc1 (stereo not given) | 0 |
| CC(C(=O)O)c1ccc(-c2ccccc2)c(F)c1 (stereo not given) | 1.43 |
| NC[C@H](O)c1ccc(O)c(O)c1 | 0 |
| Cc1ccc(-c2cc(C(F)(F)F)nn2-c2ccc(S(N)(=O)=O)cc2)cc1 | 2.85 |

| SMILES | suppression of toxicity |
| --- | --- |
| NCC(O)CC(=O)O (stereo not given) | 2.86 |
| CC(=O)Oc1ccc2c(c1)CCC1C2CCC2(C)C(=O)CCC12 (stereo not given) | 2.85 |
| CCC(=O)O[C@]1(C(=O)CCl)[C@@H](C)CC2C3CCC4=CC(=O)C=C[C@]4(C)[C@@]3(F)[C@@H](O)C[C@@]21C (stereo not given in full) | 1.43 |
| CS(=O)(=O)OCCCCOS(C)(=O)=O | 2.86 |
| Cc1onc(-c2c(Cl)cccc2Cl)c1C(=O)N[C@@H]1C(=O)N2[C@@H]1SC(C)(C)[C@@H]2C(=O)O | 2.86 |
| Oc1cc(O)c2c(c1)O[C@H](c1ccc(O)c(O)c1)[C@@H](O)C2 | 7.14 |
| CC12CCC(=O)C=C1CCC1C2[C@@H](O)CC2(C)C1CC[C@]2(O)C(=O)COP(=O)(O)O (stereo not given in full) | 2.86 |
| C[C@H](CCC(=O)O)[C@H]1CCC2C3C(=O)CC4CC(=O)CC[C@]4(C)C3CC(=O)[C@@]21C (stereo not given in full) | 0 |
| COc1c2occc2cc2ccc(=O)oc12 | 0 |
| CC(Oc1ccccc1)C(=O)NC1C(=O)N2C(C(=O)O)C(C)(C)S[C@H]12 (stereo not given in full) | 10 |
| NCC1CCC(N)C(OC2C(N)CC(N)C(OC3OC(CO)C(O)C(N)C3O)C2O)O1 (stereo not given) | 0 |
| CC(C)NCC(O)c1ccc(O)c(O)c1 (stereo not given) | 0 |
| CN[C@@H]1C(OC2[C@H](O[C@H]3[C@H](O)[C@@H](O)[C@H](N=C(N)N)[C@@H](O)[C@@H]3N=C(N)N)OC(C)[C@]2(O)CO)OC(CO)C(O)C1O (stereo not given in full) | 10 |
| CC(C)[C@@H]1CC[C@@H](C)C[C@H]1O | 4.29 |
| CC(C)NCC(O)c1ccc2ccccc2c1 (stereo not given) | 18.6 |
| COc1ccccc1OCC(O)COC(N)=O (stereo not given) | 1.43 |
| NCCNC(=O)c1ccc(Cl)cc1 | 0 |
| CC[C@@H](C(=O)C(C)[C@@H](O)[C@H](C)CCc1ccc(C)c(O)c1C(=O)O)C1OC(CC)(C2CC[C@](O)(CC)[C@H](C)O2)C[C@@H]1C (stereo not given in full) | 4.29 |
| CN(C)CCCN1c2ccccc2Sc2ccc(Cl)cc21 | 1.43 |
| CC(=O)N[C@@H](CC(=O)O)C(=O)N[C@@H](CCC(=O)O)C(=O)O | 1.43 |

Assay: PubChem AID 1597
Conditions: Drosophila SCA1 polyglutamine model, at 1 µM, stronger effect = higher value

| SMILES | suppression of toxicity |
| --- | --- |
| CCN(CC)CCOC(=O)C(c1ccccc1)c1ccccc1 | 12.1 |
| NC[C@@H]1O[C@H](O[C@@H]2[C@@H](CO)OC(O[C@@H]3[C@@H](O)[C@H](N)C[C@H](N)[C@H]3OC3O[C@H](CN)[C@@H](O)[C@H](O)[C@H]3N)[C@@H]2O)[C@H](N)[C@@H](O)[C@@H]1O (stereo not given in full) | 10 |
| CCn1nc(C(=O)O)c(=O)c2cc3c(cc21)OCO3 | 4.29 |
| CCCCC1C(=O)N(c2ccccc2)N(c2ccccc2)C1=O | 2.15 |
| O=C(O)c1c2ccccc2cc2ccccc12 | 0.715 |
| NC[C@@H]1O[C@H](O[C@H]2[C@@H](O)[C@H](O[C@@H]3[C@@H](O)[C@H](N)C[C@H](N)[C@H]3O[C@@H]3O[C@H](CO)[C@@H](O)C[C@H]3N)O[C@@H]2CO)[C@H](N)[C@@H](O)[C@@H]1O[C@H]1O[C@H](CO)[C@@H](O)[C@H](O)[C@@H]1O | 3.58 |
| O=C1OCCN1/N=C/c1ccc([N+](=O)[O-])o1 | 4.29 |
| Cc1cn([C@H]2C[C@H](N=[N+]=[N-])[C@@H](CO)O2)c(=O)[nH]c1=O | 6.42 |
| NS(=O)(=O)c1cc2c(cc1C(F)(F)F)NC(Cc1ccccc1)NS2(=O)=O (stereo not given) | 7.14 |
| CC(C)(Oc1ccc(Cl)cc1)C(=O)O | 5 |
| CN(C)CCOC(c1ccccc1)c1ccccc1 (tested in a mixture with another compound) | 15 |
| O=S(=O)(O)CCS | 0.715 |
| O=c1c(O)cc2c(O)oc3c(=O)c(O)cc4c3c2c1CC=4O | 12.1 |
| CC(C)[C@@H](C)/C=C/[C@@H](C)C1CC[C@H]2/C(=C/C=C3\C[C@@H](O)CC[C@@H]3C)CCC[C@]12C (stereo not given in full) | 0.715 |
| NC(CO)C(=O)NNCc1ccc(O)c(O)c1O (stereo not given) | 2.15 |
| CCCCOc1cc(C(=O)NCCN(CC)CC)c2ccccc2n1 | 11.4 |
| CCN(Cc1ccncc1)C(=O)C(CO)c1ccccc1 (stereo not given) | 0 |
| CC(C(=O)O)c1ccc(-c2ccccc2)c(F)c1 (stereo not given) | 6.43 |
| NC[C@H](O)c1ccc(O)c(O)c1 | 3.57 |
| Cc1ccc(-c2cc(C(F)(F)F)nn2-c2ccc(S(N)(=O)=O)cc2)cc1 | 12.1 |

| SMILES | suppression of toxicity |
| --- | --- |
| NCC(O)CC(=O)O (stereo not given) | 7.86 |
| CC(=O)Oc1ccc2c(c1)CCC1C2CCC2(C)C(=O)CCC12 (stereo not given) | 0 |
| CCC(=O)O[C@]1(C(=O)CCl)[C@@H](C)CC2C3CCC4=CC(=O)C=C[C@]4(C)[C@@]3(F)[C@@H](O)C[C@@]21C (stereo not given in full) | 2.85 |
| CS(=O)(=O)OCCCCOS(C)(=O)=O | 1.43 |
| Cc1onc(-c2c(Cl)cccc2Cl)c1C(=O)N[C@@H]1C(=O)N2[C@@H]1SC(C)(C)[C@@H]2C(=O)O | 5.71 |
| Oc1cc(O)c2c(c1)O[C@H](c1ccc(O)c(O)c1)[C@@H](O)C2 | 6.42 |
| CC12CCC(=O)C=C1CCC1C2[C@@H](O)CC2(C)C1CC[C@]2(O)C(=O)COP(=O)(O)O (stereo not given in full) | 3.58 |
| C[C@H](CCC(=O)O)[C@H]1CCC2C3C(=O)CC4CC(=O)CC[C@]4(C)C3CC(=O)[C@@]21C (stereo not given in full) | 5.71 |
| COc1c2occc2cc2ccc(=O)oc12 | 4.29 |
| CC(Oc1ccccc1)C(=O)NC1C(=O)N2C(C(=O)O)C(C)(C)S[C@H]12 (stereo not given in full) | 17.9 |
| NCC1CCC(N)C(OC2C(N)CC(N)C(OC3OC(CO)C(O)C(N)C3O)C2O)O1 (stereo not given) | 1.43 |
| CC(C)NCC(O)c1ccc(O)c(O)c1 (stereo not given) | 4.3 |
| CN[C@@H]1C(OC2[C@H](O[C@H]3[C@H](O)[C@@H](O)[C@H](N=C(N)N)[C@@H](O)[C@@H]3N=C(N)N)OC(C)[C@]2(O)CO)OC(CO)C(O)C1O (stereo not given in full) | 0 |
| CC(C)[C@@H]1CC[C@@H](C)C[C@H]1O | 7.86 |
| CC(C)NCC(O)c1ccc2ccccc2c1 (stereo not given) | 22.9 |
| COc1ccccc1OCC(O)COC(N)=O (stereo not given) | 0 |
| NCCNC(=O)c1ccc(Cl)cc1 | 0.715 |
| CC[C@@H](C(=O)C(C)[C@@H](O)[C@H](C)CCc1ccc(C)c(O)c1C(=O)O)C1OC(CC)(C2CC[C@](O)(CC)[C@H](C)O2)C[C@@H]1C (stereo not given in full) | 5 |
| CN(C)CCCN1c2ccccc2Sc2ccc(Cl)cc21 | 29.3 |
| CC(=O)N[C@@H](CC(=O)O)C(=O)N[C@@H](CCC(=O)O)C(=O)O | 3.58 |
